# No constants are given. Whether binding was seen depends on the method and setting. Binding seen in cells or lysates may run through a third protein. Some binding calls cover weakened binding; strength is not graded here. For part of these data: Where a sequence is shown, tags or fusion partners need not be part of it.
# Amino acid sequences for entries named in this document (tags omitted). A change or cut given only in a name is not applied to a line headed by its entry.
# UniProt Q9UM11, whole entry: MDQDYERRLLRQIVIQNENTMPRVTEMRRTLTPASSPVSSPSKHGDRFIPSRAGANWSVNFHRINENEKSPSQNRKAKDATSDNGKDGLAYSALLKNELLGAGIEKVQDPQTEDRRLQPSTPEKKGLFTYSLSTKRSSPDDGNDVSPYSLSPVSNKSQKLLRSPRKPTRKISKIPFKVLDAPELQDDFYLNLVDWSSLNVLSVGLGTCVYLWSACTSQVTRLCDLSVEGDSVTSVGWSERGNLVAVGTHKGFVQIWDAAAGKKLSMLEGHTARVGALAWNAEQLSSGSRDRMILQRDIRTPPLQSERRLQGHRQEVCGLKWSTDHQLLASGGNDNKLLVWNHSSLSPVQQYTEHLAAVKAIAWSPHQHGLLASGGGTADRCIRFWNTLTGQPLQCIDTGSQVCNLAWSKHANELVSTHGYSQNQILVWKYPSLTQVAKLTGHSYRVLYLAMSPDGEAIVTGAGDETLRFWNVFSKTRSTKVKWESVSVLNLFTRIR
# UniProt Q9Y297, whole entry: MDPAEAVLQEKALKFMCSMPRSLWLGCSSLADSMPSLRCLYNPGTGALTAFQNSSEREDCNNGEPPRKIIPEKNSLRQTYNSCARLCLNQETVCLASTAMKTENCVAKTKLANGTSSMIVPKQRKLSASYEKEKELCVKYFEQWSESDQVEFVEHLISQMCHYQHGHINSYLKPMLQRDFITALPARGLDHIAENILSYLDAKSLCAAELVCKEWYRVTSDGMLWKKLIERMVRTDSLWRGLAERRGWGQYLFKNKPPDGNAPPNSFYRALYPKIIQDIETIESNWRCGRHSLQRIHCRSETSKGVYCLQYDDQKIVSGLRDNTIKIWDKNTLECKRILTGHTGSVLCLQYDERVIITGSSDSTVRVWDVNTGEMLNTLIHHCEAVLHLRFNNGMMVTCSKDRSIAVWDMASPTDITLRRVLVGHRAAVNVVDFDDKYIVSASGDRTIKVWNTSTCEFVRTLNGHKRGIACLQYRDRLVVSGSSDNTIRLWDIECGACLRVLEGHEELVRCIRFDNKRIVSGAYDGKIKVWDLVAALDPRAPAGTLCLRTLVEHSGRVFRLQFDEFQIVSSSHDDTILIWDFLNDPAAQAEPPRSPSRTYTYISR
# What was measured:
# [1] = biological target: GST-Cdh1 phosphorylated in HeLa G1-S extract (UniProt Q9UM11); test: pull-down
# Flag-βTRCP1 = Flag-βTRCP1 (UniProt Q9Y297); test: co-IP
# Myc-Chk1^L449R = biological target: T1, Myc-Chk1^L449R (UniProt O14757); test: co-IP
# T1 sequence: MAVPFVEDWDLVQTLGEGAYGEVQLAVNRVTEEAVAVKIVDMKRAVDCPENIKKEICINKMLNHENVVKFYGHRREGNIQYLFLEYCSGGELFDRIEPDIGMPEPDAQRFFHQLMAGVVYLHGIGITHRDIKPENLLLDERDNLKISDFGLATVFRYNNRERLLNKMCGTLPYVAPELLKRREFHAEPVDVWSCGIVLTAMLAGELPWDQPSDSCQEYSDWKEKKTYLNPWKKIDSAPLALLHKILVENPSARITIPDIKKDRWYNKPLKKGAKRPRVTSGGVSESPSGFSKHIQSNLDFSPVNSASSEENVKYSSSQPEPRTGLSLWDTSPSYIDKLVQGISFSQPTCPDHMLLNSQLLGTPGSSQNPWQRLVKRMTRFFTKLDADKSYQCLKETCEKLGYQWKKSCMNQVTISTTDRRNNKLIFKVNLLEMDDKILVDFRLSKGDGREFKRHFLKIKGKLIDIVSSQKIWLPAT
Substance,binding [1],binding (Flag-βTRCP1),binding (Myc-Chk1^L449R)
HA-βTRCP1 (in vitro translated) (from UniProt Q9Y297 1-605),binds,–,–
"HA-Cdh1 (wild type, expressed in 293T cells) (from UniProt Q9UM11 1-496)",–,binds,binds
